In patent US20120251595A1, “EMULSION TEMPLATE METHOD TO FORM SMALL PARTICLES OF HYDROPHOBIC AGENTS WITH SURFACE ENRICHED HYDROPHILICITY BY ULTRA RAPID FREEZING” (BOARD OF REGENTS, THE UNIVERSITY OF TEXAS SYSTEM, priority 2009, published 2012):
At least one structure is not confirmed: it was looked up by name or label, or the drawing left a doubt.

Columns and labels:
Type in all cases: physicochemical
[1] = Powder X-ray diffraction (degree of crystallinity); conditions: in words
[2] = BET specific surface area (nitrogen adsorption, Nova 2000); conditions: unprocessed bulk crystalline ITZ
[3] = X-ray photoelectron spectroscopy (XPS) of particle surface composition
Description: (4) Powder characterization: The following techniques were used to characterize the URF-processed dry powders: (i) Scanning Electron Microscopy: Scanning electron microscopy (SEM) was conducted using a LEO 1530 scanning electron microscope (Carl Zeiss SMT, Peabody, Mass., USA) operated at an accelerating voltage of 10 kV; (ii) Specific Surface Area: Brunauer-Emmett-Teller (BET) specific surface area measurements were performed using a Nova 2000 Version 6.11 instrument with Nova Enhanced Data Reduction Software version 2.13 (Quantachrome Corporation, Boynton Beach, Fla.) using nitrogen as the adsorbate gas; (iii) Powder X-Ray Diffraction: Powder x-ray diffraction (PXRD) was performed using a Philips 1710 X-ray diffractometer (Philips Electronic Instruments, Mahwah, N.J.); (iv) X-ray Photoelectron Spectroscopy: Determination of surface elemental compositions of powders was conducted by X-ray photoelectron spectroscopy (XPS) using an AXIS HS photoelectron spectrometer with a monochromatic Al Ka X-ray source (Kratos Analytical, Manchester, UK); and (v) Dissolution Testing at Supersaturated Conditions: Dissolution testing at supersaturated conditions was conducted in a United States Pharmacopeia (USP) 29 dissolution apparatus model Vankel 7010 Dissolution Tester (Vankel Technology Group, Cary, N.C.) at pH 1.2 using 100 mL glass dissolution vessels and stirred with small paddles at 100 rpm, temperature 37.5±0.2° C.; the amount of powder employed equaled to 10× and 100× the equilibrium solubility of crystalline ITZ at pH 1.2 (Ceq=5 μg/mL); 1 mL samples were collected at predetermined time points (n=3). […]
Powders containing ITZ were prepared according to procedures outlined in Examples 1, 2, 3, and 4 with the same formulations. The elemental composition of the particle surfaces was determined using X-ray photoelectron spectroscopy (XPS). […] Percent surface excess of ITZ was calculated by deducting 50% from the percent surface compositions of ITZ while percent surface excess of lecithin was calculated by deducting 25% from the percent surface compositions of lecithin. […]

CCC(C)n1ncn(-c2ccc(N3CCN(c4ccc(OCC5COC(Cn6cncn6)(c6ccc(Cl)cc6Cl)O5)cc4)CC3)cc2)c1=O (centres unmarked) [ITZ, itraconazole]
Degree of crystallinity by X-ray diffraction [1]: highly crystalline
Specific surface area [2]: 4.22 m^2/g
Surface composition ITZ, EM ([3]; normalized to mass concentration of pure ITZ, emulsion template): 100.0%
Mass concentration of chlorine, pure substance ([3]; pure ITZ): 9.54%
Mass Concentration Chlorine, EM ([3]; surface, emulsion template, chlorine represents ITZ): 9.54%
